Reference: the supplement of paper PMC12067093, “Discovery and optimisation of a covalent ligand for TRIM25 and its application to targeted protein ubiquitination” (Chemical Science, 2025)
The list shows a part of the results.

By UniProt entry, the sequences of proteins in these tests, tags left out. Where a name states a change or a piece, a line headed by the entry shows the natural chain unless it says otherwise.
UniProt Q9P0M6, whole entry: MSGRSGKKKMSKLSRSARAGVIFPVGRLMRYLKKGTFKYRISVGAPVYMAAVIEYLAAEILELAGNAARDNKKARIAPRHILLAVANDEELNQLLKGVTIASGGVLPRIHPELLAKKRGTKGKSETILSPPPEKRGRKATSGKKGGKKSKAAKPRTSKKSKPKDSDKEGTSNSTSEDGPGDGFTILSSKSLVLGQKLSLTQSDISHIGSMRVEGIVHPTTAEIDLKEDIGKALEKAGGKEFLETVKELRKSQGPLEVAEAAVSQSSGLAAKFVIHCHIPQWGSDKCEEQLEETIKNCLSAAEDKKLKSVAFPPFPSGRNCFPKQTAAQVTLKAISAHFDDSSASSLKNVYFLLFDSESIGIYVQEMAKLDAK
UniProt Q8TD30: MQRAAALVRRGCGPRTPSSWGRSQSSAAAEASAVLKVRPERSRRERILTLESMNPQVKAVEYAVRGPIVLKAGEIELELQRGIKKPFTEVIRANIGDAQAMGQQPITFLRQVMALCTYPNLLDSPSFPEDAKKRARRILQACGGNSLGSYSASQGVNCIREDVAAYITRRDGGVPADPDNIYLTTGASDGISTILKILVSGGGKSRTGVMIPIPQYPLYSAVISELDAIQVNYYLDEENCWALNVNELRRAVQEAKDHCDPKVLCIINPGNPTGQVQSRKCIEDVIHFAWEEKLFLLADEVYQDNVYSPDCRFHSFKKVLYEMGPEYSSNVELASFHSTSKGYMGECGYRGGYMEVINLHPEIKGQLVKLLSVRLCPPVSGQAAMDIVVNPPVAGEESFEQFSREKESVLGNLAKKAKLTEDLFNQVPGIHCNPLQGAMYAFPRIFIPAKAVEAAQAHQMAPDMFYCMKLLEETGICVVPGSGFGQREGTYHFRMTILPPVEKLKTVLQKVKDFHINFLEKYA
UniProt Q96CP6, whole entry, looked up: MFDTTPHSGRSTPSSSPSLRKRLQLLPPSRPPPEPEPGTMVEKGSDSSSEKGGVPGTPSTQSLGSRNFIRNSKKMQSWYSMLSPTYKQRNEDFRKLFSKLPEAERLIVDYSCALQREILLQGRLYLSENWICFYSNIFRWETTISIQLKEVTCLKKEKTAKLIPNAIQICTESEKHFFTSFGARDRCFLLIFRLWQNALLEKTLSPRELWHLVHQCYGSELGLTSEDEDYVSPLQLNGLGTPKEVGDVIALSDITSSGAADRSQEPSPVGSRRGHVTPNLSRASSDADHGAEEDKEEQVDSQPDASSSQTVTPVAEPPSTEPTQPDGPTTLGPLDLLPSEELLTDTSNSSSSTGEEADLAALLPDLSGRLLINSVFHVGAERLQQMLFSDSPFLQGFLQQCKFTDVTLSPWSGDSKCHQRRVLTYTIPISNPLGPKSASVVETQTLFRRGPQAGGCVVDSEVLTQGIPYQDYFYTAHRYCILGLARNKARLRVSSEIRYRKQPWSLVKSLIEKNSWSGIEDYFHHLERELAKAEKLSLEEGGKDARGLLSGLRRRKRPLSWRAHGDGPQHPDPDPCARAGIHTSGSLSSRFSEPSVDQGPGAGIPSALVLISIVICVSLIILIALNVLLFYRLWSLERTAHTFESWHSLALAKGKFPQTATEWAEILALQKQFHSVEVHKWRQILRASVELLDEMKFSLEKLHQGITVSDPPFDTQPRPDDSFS
UniProt Q6PII5: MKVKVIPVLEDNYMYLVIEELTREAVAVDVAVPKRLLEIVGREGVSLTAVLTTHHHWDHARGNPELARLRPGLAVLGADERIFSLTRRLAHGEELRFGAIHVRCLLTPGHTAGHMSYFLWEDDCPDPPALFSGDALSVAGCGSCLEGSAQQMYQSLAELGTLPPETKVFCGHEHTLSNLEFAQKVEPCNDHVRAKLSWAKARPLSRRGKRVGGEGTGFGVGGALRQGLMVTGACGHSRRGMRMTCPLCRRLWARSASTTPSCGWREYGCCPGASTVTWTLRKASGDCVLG
UniProt Q68CZ6: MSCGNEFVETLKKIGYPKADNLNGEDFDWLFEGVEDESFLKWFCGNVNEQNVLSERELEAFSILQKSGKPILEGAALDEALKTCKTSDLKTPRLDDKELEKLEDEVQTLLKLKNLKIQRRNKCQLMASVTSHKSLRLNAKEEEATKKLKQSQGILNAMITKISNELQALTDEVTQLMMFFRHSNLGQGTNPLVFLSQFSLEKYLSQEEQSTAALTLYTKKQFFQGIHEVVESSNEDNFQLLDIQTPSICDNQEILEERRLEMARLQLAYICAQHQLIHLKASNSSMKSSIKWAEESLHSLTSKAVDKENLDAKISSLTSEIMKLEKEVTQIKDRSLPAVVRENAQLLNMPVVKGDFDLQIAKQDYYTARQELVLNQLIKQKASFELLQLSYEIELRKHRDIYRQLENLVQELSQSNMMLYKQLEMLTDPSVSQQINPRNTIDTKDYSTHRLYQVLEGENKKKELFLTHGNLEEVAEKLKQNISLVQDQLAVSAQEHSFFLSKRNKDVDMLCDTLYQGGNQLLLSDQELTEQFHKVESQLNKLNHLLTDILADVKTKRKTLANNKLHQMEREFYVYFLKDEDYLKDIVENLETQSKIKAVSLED
UniProt P57764: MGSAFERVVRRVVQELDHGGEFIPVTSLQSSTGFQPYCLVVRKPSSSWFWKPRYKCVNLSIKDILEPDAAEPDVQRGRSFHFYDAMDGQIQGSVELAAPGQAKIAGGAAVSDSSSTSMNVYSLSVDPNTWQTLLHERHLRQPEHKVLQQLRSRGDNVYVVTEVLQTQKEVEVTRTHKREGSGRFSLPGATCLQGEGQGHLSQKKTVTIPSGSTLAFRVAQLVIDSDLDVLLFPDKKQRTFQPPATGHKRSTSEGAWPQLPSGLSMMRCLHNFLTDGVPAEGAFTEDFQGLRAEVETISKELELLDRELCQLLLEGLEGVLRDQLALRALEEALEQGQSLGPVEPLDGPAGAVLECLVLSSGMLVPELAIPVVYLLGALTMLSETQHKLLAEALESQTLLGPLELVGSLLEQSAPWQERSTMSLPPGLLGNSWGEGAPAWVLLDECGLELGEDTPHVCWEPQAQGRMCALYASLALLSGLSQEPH
UniProt Q9UBQ7: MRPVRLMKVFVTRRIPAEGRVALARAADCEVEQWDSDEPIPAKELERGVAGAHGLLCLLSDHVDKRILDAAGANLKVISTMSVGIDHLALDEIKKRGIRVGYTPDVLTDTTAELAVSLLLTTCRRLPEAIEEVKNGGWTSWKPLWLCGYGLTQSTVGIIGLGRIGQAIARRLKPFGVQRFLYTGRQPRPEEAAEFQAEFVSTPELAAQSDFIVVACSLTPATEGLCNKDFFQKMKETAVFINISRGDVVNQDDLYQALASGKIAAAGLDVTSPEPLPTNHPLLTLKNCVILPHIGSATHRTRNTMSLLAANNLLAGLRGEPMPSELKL
UniProt P15170, whole entry, looked up: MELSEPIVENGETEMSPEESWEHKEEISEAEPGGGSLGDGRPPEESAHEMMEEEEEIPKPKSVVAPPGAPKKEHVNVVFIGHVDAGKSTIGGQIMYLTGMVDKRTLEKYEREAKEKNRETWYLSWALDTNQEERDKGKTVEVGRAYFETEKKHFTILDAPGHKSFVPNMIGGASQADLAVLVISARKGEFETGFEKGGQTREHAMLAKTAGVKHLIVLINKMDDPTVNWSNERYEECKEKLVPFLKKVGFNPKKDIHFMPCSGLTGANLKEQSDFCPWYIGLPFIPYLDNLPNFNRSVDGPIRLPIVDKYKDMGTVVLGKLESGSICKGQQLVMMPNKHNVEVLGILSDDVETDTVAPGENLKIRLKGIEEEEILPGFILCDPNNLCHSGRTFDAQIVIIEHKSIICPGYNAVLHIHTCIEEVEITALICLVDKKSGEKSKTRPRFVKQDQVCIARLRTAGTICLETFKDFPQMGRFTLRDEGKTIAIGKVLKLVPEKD
UniProt O75367, whole entry, looked up: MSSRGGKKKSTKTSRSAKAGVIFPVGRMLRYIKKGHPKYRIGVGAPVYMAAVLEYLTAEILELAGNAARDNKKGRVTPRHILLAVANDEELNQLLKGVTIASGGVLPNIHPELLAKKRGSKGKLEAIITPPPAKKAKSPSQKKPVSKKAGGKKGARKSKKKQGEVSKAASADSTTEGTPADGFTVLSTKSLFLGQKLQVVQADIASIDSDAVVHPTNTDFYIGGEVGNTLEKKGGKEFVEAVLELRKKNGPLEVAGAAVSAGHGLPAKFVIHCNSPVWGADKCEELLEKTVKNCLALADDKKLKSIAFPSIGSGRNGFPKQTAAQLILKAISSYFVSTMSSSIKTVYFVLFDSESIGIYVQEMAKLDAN
UniProt Q92664: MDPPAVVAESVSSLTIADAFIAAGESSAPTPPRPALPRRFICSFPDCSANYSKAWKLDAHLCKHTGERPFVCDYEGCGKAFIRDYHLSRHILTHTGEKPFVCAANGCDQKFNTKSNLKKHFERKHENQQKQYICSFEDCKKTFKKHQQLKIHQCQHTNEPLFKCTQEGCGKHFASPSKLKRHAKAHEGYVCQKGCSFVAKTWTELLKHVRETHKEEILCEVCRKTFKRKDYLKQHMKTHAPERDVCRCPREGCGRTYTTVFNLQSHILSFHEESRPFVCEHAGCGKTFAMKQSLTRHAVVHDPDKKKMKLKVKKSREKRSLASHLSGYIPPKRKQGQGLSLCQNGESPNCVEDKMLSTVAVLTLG
UniProt P46976: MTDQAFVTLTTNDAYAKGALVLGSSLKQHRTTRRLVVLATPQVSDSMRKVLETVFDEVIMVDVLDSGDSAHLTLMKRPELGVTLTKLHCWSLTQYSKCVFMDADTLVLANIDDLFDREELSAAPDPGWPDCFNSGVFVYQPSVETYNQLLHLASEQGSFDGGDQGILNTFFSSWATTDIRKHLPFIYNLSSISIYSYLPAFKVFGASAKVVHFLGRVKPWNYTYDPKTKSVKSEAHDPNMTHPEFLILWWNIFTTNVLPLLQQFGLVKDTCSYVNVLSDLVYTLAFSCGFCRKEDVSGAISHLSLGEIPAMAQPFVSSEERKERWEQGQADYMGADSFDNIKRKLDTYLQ
UniProt P49841: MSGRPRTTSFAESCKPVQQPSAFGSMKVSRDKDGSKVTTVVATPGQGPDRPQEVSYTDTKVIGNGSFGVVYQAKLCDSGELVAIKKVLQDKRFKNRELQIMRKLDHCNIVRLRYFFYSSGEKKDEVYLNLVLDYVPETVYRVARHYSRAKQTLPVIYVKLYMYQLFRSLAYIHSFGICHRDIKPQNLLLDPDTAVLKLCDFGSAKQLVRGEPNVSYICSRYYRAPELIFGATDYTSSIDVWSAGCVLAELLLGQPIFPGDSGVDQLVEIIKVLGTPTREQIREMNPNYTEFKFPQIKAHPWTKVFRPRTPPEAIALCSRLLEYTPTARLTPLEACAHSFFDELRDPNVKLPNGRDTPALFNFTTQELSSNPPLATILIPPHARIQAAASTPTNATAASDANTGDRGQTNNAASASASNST
UniProt Q92917: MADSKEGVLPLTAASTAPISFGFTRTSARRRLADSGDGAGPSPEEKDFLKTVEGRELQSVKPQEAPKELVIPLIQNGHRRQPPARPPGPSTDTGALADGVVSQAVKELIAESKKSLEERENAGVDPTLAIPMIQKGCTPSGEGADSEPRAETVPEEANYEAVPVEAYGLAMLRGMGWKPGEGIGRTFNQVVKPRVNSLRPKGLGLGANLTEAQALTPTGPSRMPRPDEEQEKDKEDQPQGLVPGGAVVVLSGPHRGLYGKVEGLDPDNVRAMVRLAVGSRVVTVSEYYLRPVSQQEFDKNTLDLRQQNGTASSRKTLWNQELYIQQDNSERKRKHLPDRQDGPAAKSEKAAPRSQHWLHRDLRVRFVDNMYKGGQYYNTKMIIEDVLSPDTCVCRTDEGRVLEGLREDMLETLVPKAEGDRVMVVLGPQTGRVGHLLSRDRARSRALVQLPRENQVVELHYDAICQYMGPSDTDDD
UniProt Q9BQ67, whole entry, looked up: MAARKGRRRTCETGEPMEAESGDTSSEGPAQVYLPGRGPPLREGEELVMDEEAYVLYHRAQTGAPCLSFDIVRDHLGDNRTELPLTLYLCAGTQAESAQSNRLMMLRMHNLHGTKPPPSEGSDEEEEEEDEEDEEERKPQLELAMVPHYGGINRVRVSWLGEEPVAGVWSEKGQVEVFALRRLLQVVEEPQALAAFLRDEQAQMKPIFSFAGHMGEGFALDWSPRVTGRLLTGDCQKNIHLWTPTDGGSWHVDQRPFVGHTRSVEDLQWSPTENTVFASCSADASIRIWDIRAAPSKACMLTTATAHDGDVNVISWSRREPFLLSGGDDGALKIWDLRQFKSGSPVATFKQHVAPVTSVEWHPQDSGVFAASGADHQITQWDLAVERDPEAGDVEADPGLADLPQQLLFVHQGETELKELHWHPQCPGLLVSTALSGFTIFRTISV

compound: CC1Cc2ccccc2N1C(=O)C1CCCN(C1)C(=O)CCl (mixture of isomers) [TRIM25 ligand 11 (diastereomer mixture)]; experiment: probe-labelled cysteine peptide fold change vs DMSO (competition) (log2 fold change); higher = less target engagement (more negative = stronger competition); conditions: 50 µM; THP-1; incubation time: 4 h
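Note: competitive chemoproteomic profiling in live THP-1 cells with an iodoacetamide desthiobiotin (IA-DTB) probe, comparing probe-labelled peptide intensities in compound-treated cells against DMSO-treated controls.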

Row | Target | probe-labelled cysteine peptide fold change
1 | H2AFY2_Q9P0M6_286_CEEQLEETIK (UniProt Q9P0M6) | 0.13
2 | GPT2_Q8TD30_281_CIEDVIHFAWEEK (UniProt Q8TD30) | 0.0432
3 | GRAMD1A_Q96CP6_576_AHGDGPQHPDPDPCAR (UniProt Q96CP6) | -0.138
4 | HAGHL_Q6PII5_170_VFCGHEHTLSNLEFAQK (UniProt Q6PII5) | -0.0981
5 | HAUS3_Q68CZ6_271_LQLAYICAQHQLIHLK (UniProt Q68CZ6) | 0.0633
6 | GSDMD_P57764_191_FSLPGATCLQGEGQGHLSQKK (UniProt P57764) | -0.546
7 | GRHPR_Q9UBQ7_57_GVAGAHGLLCLLSDHVDKR (UniProt Q9UBQ7) | -0.0177
8 | GSPT1_P15170_453_FVKQDQVCIAR (UniProt P15170) | -0.242
9 | H2AFY_O75367_276_FVIHCNSPVWGADKCEELLEK (UniProt O75367) | -0.0894
10 | GSE1_Q14687_1151_QVLQTQCR (UniProt Q14687) | 0.0342
11 | GTF3A_Q92664_62_LDAHLCK (UniProt Q92664) | -0.00835
12 | GYG1_P46976_89_LHCWSLTQYSK (UniProt P46976) | -0.217
13 | GSK3B_P49841_76_LCDSGELVAIKK (UniProt P49841) | -0.0841
14 | GPKOW_Q92917_137_GCTPSGEGADSEPR (UniProt Q92917) | -0.157
15 | GRWD1_Q9BQ67_90_DHLGDNRTELPLTLYLCAGTQAESAQSNR (UniProt Q9BQ67) | 0.0239
16 | GPKOW_Q92917_394_MIIEDVLSPDTCVCR (UniProt Q92917) | -0.149

No new results follow: entries from further up.
Row | Target | probe-labelled cysteine peptide fold change
2 | GPT2_Q8TD30_281_CIEDVIHFAWEEK (UniProt Q8TD30) | 0.0432
3 | GRAMD1A_Q96CP6_576_AHGDGPQHPDPDPCAR (UniProt Q96CP6) | -0.138
